PubChem BioAssay AID1508588 | Peter MacCallum Cancer Centre | 2020
The deposit covers about 18,000 reagents; shown is an unselected part. Of all reagents, 790 (4.4%) got an active call. 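Calls rest on a combination of fold-change classes in drug and vehicle arms, not all shown here.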 Reagents against one gene are numbered here. Reagent sequences are not shown.

- Assay: 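Which gene losses make BRAF-mutant melanoma cells more responsive to vemurafenib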 (primary screen)
- System: human WM266.4 melanoma cells (BRAF V600 mutant)
- Knock-down reagent: siRNA pool against human genes, 40 nM
- Duration: 96 h from transfection to read-out
- Treatment: vemurafenib 300 nM (about IC25), added 48 h after transfection, for 48 h; comparison arm got DMSO vehicle only
- Measured: 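Cell gain (DAPI nuclei at end minus before drug, mean of two replicates) and medium lactate by absorbance per cell, both as ratio to non-targeting siRNA, also grouped into fold-change classes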
- Reading the numbers: cell gain with vemurafenib: higher = more cell gain than with non-targeting siRNA; lactate per cell with vemurafenib: higher = more lactate made per cell
- Hit rule: 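a knock-down counts as enhancing when its fold-change classes with vehicle and with vemurafenib, taken together, show a stronger drug effect on cell gain or lactate per cell; exact class pairs not stated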
- Meaning of the calls: active = enhances vemurafenib effect; inactive = no enhancement seen

target gene	reagent	cell gain with vemurafenib	lactate per cell with vemurafenib	Call
PAQR6	1	0.52	1.57	inactive
SLF2	1	1.03	0.91	inactive
PHYKPL	1	0.24	1.29	inactive
NIBAN1	1	0.22	1.44	inactive
P4HA1	1	0.88	0.34	inactive
ATP6V1G2	1	0.9	0.93	inactive
TIPE3	1	0.18	0.7	inactive
SLC24A1	1	0.53	0.94	inactive
CRNKL1	1	0.11	1.12	inactive
RASEF	1	0.73	0.64	inactive
ZNF426	1	0.02	0.95	inactive
BABAM1	1	0.51	0.71	inactive
TXNRD3	1	0.77	0.56	inactive
TXNRD3	2	0.71	1.26	inactive
SUGCT	1	0.58	0.99	inactive
PLD5	1	0.63	1.14	inactive
PABPN1L	1	0.13	1.35	inactive
OR5B17	1	0.79	0.67	inactive
CTCFL	1	0.68	0.57	inactive
CNOT7	1	0.65	0.94	inactive
ASL	1	1.11	0.63	inactive
SHB	1	1.22	0.54	inactive
DIP2C	1	0.81	1.16	inactive
ADGRA3	1	1.03	0.51	inactive
PTGES	1	0.88	1.15	inactive
RAG1	1	0.41	1.24	inactive
TACC1	1	1.08	1.1	inactive
OTX2	1	0.79	0.86	inactive
SIGLEC15	1	0.66	0.66	inactive
PDYN	1	1.15	0.57	inactive
CDX2	1	0.83	0.89	inactive
C22orf31	1	1.04	1.14	inactive
GLCCI1	1	0.1	2.36	inactive
EPB41L3	1	0.79	0.84	inactive
PRDX6	1	0.93	0.78	inactive
TMEM171	1	0.62	1.21	inactive
CTBP2	1	0.79	1.3	inactive
KRTAP19-4	1	0.31	0.92	inactive
CSRNP2	1	0.79	0.98	inactive
TRAK1	1	0.08	1.09	inactive
CLEC18A	1	0.81	0.68	inactive
MAJIN	1	0.92	0.55	inactive
NCOA1	1	0.68	1.04	inactive
SEC14L2	1	1.24	0.66	inactive
SDAD1	1	0.48	0.32	active
RGPD5	1	0.43	1.9	inactive
TMEM245	1	0.77	1.07	inactive
CFHR5	1	-0.04	1.31	inactive
PCMTD1	1	0.7	0.74	inactive
LIPK	1	0.63	0.78	inactive
FAM20A	1	0.4	1.45	inactive
MYBPC3	1	0.73	1.26	inactive
LMO1	1	0.91	0.62	inactive
YEATS2	1	0.32	0.68	inactive
UPF2	1	0.94	0.61	inactive
DOC2B	1	0.35	1.03	inactive
CTDNEP1	1	0.73	1.24	inactive
ACSS2	1	0.5	1.43	inactive
NUDT6	1	0.3	1.15	inactive
FBXL19	1	0.47	1.44	inactive
ARMC12	1	0.46	0.58	inactive
HGS	1	0.48	0.95	inactive
DHX30	1	0.69	0.83	inactive
USP13	1	0.98	1.1	inactive
CNKSR3	1	0.75	0.65	inactive
CXCR5	1	1.11	0.58	inactive
MPZ	1	0.47	1.01	inactive
SEMA4C	1	0.82	0.66	inactive
PLAU	1	0.56	1	inactive
AP2S1	1	0.9	0.7	inactive
FCAMR	1	0.84	1.66	inactive
OR2B11	1	-0.08	0.68	inactive
AP1G1	1	0.64	0.98	inactive
EGLN3	1	0.28	1.35	inactive
METTL27	1	0.84	1.38	inactive
POF1B	1	0.52	0.44	inactive
DPEP2	1	0.66	0.97	inactive
LSM4	1	0.47	1.18	inactive
DNAH7	1	0.73	0.72	inactive
CD7	1	0.66	0.44	inactive
TNFRSF21	1	0.22	1.29	inactive
SP4	1	0.28	1.92	inactive
LINC00174	1	0.14	3.92	inactive
LSM2	1	0.53	1.79	inactive

Limited to “cell gain with vemurafenib” (8 entries from above):
AP2S1 = 0.9
FCAMR = 0.84
OR2B11 = -0.08
AP1G1 = 0.64
EGLN3 = 0.28
METTL27 = 0.84
POF1B = 0.52
DPEP2 = 0.66
